Results published in patent publication EP2330122A1, “OFA/iLRP derived modified peptide” (Asklepios Kliniken Hamburg Gmbh, priority 2009, dated 2011).
“Also recorded” adds a separate entry of the source. At least one peptide structure holds a part that was inferred or is arguable (an end, a ring closure or a residue). Where no end group is shown, it is not given here.

Test system: tumor cells from CLL patients
Experiment: 51Chromium release assay on tumor cells from CLL patients
Assay type: cell-based, human
Description: For the induction of OFA/iLR peptide-specific CTL obtained from patients with CLL CDS^+ T cells were separated from PBMC using immunomagnetic beads (MACS®, Miltenyi, Bergisch-Gladbach, Germany) and co-cultured with autologous irradiated OFA/iLR peptide-pulsed CD8^+/CD4^+-depleted PBMC. CTL were weekly restimulated with autologous irradiated peptide-pulsed CD8^+ICD4^+-depleted PBMC in the presence of IL-2 (20IU/ml; CellConcepts, Weisskirch, Germany) and IL-7 (10ng/ml; PeproTech, Hamburg, Germany). After at least four weekly restimulations, CTL reactivity was determined in a conventional 4h ^51Chromium release assay. Antibody blocking experiments were performed as previously described (Zeis M, Siegel S, Schmitz M et al. Induction of cytotoxic T lymphocytes against hematologic neoplasms by survivin RNA-transfected dendritic cells. J Immunol. 2003; 170, 5391-5397).
T cells specific for HLA-A* 02-restricted iLR-ASK-a2 peptide were tested in a standard ^51Chromium release assay on tumor cells from CLL patients.

VLIENPADV [iLR-ASK-A2]
recognition of CLL cells by iLR-ASK-A2-specific CTL (A*02-negative/OFA/iLRP-positive patient cells): not recognized in any case
recognition of CLL cells by iLR-ASK-A2-specific CTL (A*02-positive/OFA/iLRP-negative patient cells): not recognized in any case
recognition of CLL cells by iLR-ASK-A2-specific CTL (A*02-positive/OFA/iLRP-positive patient cells): recognized; also recorded: strong cytolytic activity
